Reference: patent US20230374038A1, “MODULATORS OF CYSTIC FIBROSIS TRANSMEMBRANE CONDUCTANCE REGULATOR” (VERTEX PHARMACEUTICALS INCORPORATED, priority 2020, published 2023)
The match of structure and compound is tentative.

Protein sequences, listed by entry. Tags and fused reporters are not part of them. Chains listed by the source or under a name are the forms on record and can include a tag or linker.
UniProt P13569, with tags, fused parts or gaps DEL508-508: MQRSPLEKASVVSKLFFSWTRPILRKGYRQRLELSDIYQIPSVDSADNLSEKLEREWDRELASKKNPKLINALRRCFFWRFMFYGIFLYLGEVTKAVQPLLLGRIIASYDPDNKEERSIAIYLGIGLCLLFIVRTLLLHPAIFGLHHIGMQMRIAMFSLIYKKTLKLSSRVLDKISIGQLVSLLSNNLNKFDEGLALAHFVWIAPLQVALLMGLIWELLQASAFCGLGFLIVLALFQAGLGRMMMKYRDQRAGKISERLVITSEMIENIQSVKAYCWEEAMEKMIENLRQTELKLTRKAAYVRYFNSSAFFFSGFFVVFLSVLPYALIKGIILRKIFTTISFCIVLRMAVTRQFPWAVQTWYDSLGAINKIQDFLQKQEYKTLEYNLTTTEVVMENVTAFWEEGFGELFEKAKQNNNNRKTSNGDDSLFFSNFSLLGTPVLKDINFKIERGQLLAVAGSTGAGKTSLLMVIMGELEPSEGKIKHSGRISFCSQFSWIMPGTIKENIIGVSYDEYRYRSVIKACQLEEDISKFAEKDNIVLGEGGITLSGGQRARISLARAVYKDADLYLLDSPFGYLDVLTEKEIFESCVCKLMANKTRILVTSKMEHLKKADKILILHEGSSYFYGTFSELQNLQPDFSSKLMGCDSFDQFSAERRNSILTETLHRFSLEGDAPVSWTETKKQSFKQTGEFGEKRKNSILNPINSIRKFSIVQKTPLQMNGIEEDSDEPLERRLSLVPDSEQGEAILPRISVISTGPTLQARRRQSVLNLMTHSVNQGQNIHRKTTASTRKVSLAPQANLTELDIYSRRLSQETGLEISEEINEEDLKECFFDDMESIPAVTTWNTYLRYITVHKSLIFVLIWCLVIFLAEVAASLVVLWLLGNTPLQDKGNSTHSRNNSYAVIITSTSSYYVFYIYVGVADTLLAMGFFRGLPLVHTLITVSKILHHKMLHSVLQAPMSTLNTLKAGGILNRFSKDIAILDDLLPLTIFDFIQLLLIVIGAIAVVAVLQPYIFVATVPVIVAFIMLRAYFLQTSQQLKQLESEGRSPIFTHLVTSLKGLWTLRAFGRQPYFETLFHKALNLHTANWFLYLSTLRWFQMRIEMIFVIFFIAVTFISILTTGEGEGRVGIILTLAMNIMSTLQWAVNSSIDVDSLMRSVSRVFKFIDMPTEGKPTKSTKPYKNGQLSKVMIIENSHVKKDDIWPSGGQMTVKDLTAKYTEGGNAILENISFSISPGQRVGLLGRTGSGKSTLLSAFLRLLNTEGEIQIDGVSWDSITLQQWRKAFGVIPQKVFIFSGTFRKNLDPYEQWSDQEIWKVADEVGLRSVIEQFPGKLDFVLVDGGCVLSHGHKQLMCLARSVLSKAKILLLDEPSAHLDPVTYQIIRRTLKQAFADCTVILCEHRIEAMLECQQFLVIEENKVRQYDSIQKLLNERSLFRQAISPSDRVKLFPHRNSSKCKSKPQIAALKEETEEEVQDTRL

Columns and labels:
CFTR [1] = molecular target: CFTR (Homo sapiens, UniProt P13569, DEL508-508); assay: HBE Assay: Ussing chamber assay of CFTR-mediated short-circuit currents in F508del/MF-HBE cells with 1 μM Ivacaftor; conditions: for HBE Max Activity: 18-24 hours, 20% human serum; for EC50: read-out: HBE EC50, 18-24 hours, 20% human serum
Method: Ussing chamber experiments were performed using human bronchial epithelial (HBE) cells derived from CF subjects heterozygous for F508del and a minimal function CFTR mutation (F508del/MF-HBE) and cultured as previously described (Neuberger T, Burton B, Clark H, Van Goor F Methods Mol Biol 2011:741:39-54). After four days the apical media was removed, and the cells were grown at an air liquid interface for >14 days prior to use.
(§1) To isolate the CFTR-mediated short-circuit (ISC) current, F508del/MF-HBE grown on Costar® Snapwell™ cell culture inserts were mounted in an Ussing chamber and the transepithelial ISC was measured under voltage-clamp recording conditions (Vhold=0 mV) at 37° C. The basolateral solution contained (in mM) 145 NaCl, 0.83 K2HIPO4, 3.3 KH2PO4, 1.2 MgCl2, 1.2 CaCl2), 10 Glucose, 10 HEPES (pH adjusted to 7.4 with NaOH) and the apical solution contained (in mM) 145 NaGluconate, 1.2 MgCl2, 1.2 CaCl2), 10 glucose, 10 HEPES (pH adjusted to 7.4 with NaOH) and 30 μM amiloride to block the epithelial sodium channel. Forskolin (20 μM) was added to the apical surface to activate CFTR, followed by apical addition of a CFTR inhibitor cocktail consisting of BPO, GlyH-101, and CFTR inhibitor 172 (each at 20 μM final assay concentration) to specifically isolate CFTR currents. The CFTR-mediated ISC (μA/cm^2) for each condition was determined from the peak forskolin response to the steady-state current following inhibition.
The activity of the CFTR corrector compounds on the CFTR-mediated ISC was determined in Ussing chamber studies as described above. The F508del/MF-HBE cell cultures were either incubated with the corrector compounds at a range of concentrations in combination with 1 μM Ivacaftor or were incubated with the corrector compounds at a single fixed concentration of 10 μM in combination with 1 μM Ivacaftor for 18-24 hours at 37° C. and in the presence of 20% human serum. The concentration of corrector compounds with 1 μM Ivacaftor during the 18-24 hours incubations was kept constant throughout the Ussing chamber measurement of the CFTR-mediated ISC to ensure compounds were present throughout the entire experiment. The efficacy and potency of the putative F508del correctors was compared to that of the known Vertex corrector, (14S)-8-[3-(2-{Dispiro[2.0.2.1]heptan-7-yl}ethoxy)-1H-pyrazol-1-yl]-12,12-dimethyl-2λ^6-thia-3,9,11,18,23-pentaazatetracyclo[17.3.1.111,14.05,10]tetracosa-1(22),5,7,9,19(23),20-hexaene-2,2,4-trione, in combination with 18 μM Tezacaftor and 1 μM Ivacaftor.
as §1, with “K2HPO4,” for “K2HIPO4,”

CFTR [2] = molecular target: T1, CFTR (Homo sapiens, UniProt P13569); assay: Membrane Potential Dye, Enteroid Assay B; conditions: for EC50: read-out: Ent. B EC50
Method: (§2) Base medium (ADF+++) consisted of Advanced DMEM/Ham's F12, 2 mM Glutamax, 10 mM HEPES, 1 µg/mL penicillin/streptomycin.
(§3) Intestinal enteroid maintenance medium (IEMM) consisted of ADF+++, 1× B27 supplement, 1× N2 supplement, 1.25 mM N-acetyl cysteine, 10 mM Nicotinamide, 50 ng/mL hEGF, 10 nM Gastrin, 1 pg/mL hR-spondin-1, 100 ng/mL hNoggin, TGF-b type 1 inhibitor A-83-01, 100 μg/mL Primocin, […] P38 MAPK inhibitor SB202190.
(§4) Bath 1 Buffer consisted of 1 mM MgCl2, 160 mM NaCl, 4.5 mM KCl, 10 mM HEPES, 10 mM Glucose, 2 mM CaCl2).
(§5) Chloride Free Buffer consisted of 1 mM Magnesium Gluconate, 2 mM Calcium Gluconate, 4.5 mM Potassium Gluconate, 160 mM Sodium Gluconate, 10 mM HEPES, 10 mM Glucose.
(§6) Bath1 Dye Solution consisted of Bath 1 Buffer, 0.04% Pluronic F127, […] Methyl Oxonol, 30 μM CaCCinh-A01, 30 μM Chicago Sky Blue.
(§7) Chloride Free Dye Solution consisted of Chloride Free Buffer, 0.04% Pluronic F127, 20 μM Methyl Oxonol, 30 μM CaCCinh-A01, 30 μM Chicago Sky Blue.
Chloride Free Dye Stimulation Solution consisted of Chloride Free Dye Solution, 10 μM forskolin, 100 μM IBMX, and 300 nM Compound III.
Human intestinal epithelial enteroid cells were obtained from the Hubrecht Institute for Developmental Biology and Stem Cell Research, Utrecht, The Netherlands and expanded in T-Flasks as previously described (Dekkers J F, Wiegerinck C L, de Jonge H R, Bronsveld I, Janssens H M, de Winter-de Groot K M, Brandsma A M, de Jong N W M, Bijvelds M J C, Scholte B J, Nieuwenhuis E E S, van den Brink S, Clevers H, van der Ent C K, Middendorp S and M Beekman J M. A functional CFTR assay using primary cystic fibrosis intestinal organoids. Nat Med. 2013 July; 19(7):939-45.).
Cells were recovered in cell recovery solution, collected by centrifugation at 650 rpm for 5 min at 4° C., resuspended in TryPLE and incubated for 5 min at 37° C. […]
Enteroid cells were incubated with test compound in IEMM for 18-24 hours at 37° C., 95% humidity and 5% CO2. […] Chloride transport was initiated by addition of Chloride Free Dye Stimulation Solution and the fluorescence signal was read for 15 min. […] Chloride transport was then expressed as a percentage of the chloride transport following treatment with 1 μM (14S)-8-[3-(2-{Dispiro[2.0.2.1]heptan-7-yl}ethoxy)-1H-pyrazol-1-yl]-12,12-dimethyl-2λ^6-thia-3,9,11,18,23-pentaazatetracyclo[17.3.1.111,14.05,10]tetracosa-1(22),5,7,9,19(23),20-hexaene-2,2,4-trione, 3 μM (R)-1-(2,2-difluorobenzo[d][1,3]dioxol-5-yl)-N-(1-(2,3-dihydroxypropyl)-6-fluoro-2-(1-hydroxy-2-methylpropan-2-yl)-1H-indol-5-yl)cyclopropanecarboxamide and 300 nM acute N-[2,4-bis(1,1-dimethylethyl)-5-hydroxyphenyl]-1,4-dihydro-4-oxoquinoline-3-carboxamide triple combination control (% Activity).

CFTR [3] = molecular target: T1, CFTR; assay: Membrane Potential Dye, Enteroid Assay A
Method: as §2, §3, §4, §5, §6, §7
Chloride Free Dye Stimulation Solution consisted of Chloride Free Dye Solution, 10 μM forskolin, 100 μM IBMX, and 300 nM Compound III. […]
Enteroid cells were incubated with test compound in IEMM for 18-24 hours at 37° C., 95% humidity and 5% CO2. […] Chloride transport was initiated by addition of Chloride Free Dye Stimulation Solution and the fluorescence signal was read for 15 min. […]

| SMILES | HBE Max Activity (CFTR [1]) | EC50 (CFTR [1]) [µM] | Ent. B Max Activity (CFTR [2]) | EC50 (CFTR [2]) [µM] | other results |
| --- | --- | --- | --- | --- | --- |
| Cc1cccc(C)c1-c1nc2nc(c1C)OC[C@@H](CC(C)C)N(Cc1cncc(N(C)CC(C)(C)C)n1)C(=O)c1cccc(c1)S(=O)(=O)N2 | +++ (+++ is >600%) | < 1 |  |  |  |
| COc1ccc(-c2c3nc(nc2-c2c(C)cccc2C)NS(=O)(=O)c2cccc(c2)C(=O)N[C@H](CC(C)C)CO3)cc1 |  |  | +++ (+++ is >60%) | < 1 |  |
| Cc1cccc(CC(C)C)c1-c1nc2nc(c1C)OC[C@@H](CC(C)(C)C)N(Cc1nccc(N(C)C(C)C)n1)C(=O)c1cccc(c1)S(=O)(=O)N2 | +++ (+++ is >600%) | < 1 |  |  |  |
| Cc1cccc(C)c1-c1nc2nc(c1-c1ccccn1)OC[C@@H](C)NC(=O)c1cccc(c1)S(=O)(=O)N2 |  |  | + (+ is <30%) | 3 to 30 |  |
| Cc1cccc(CC(C)C)c1-c1nc2nc(c1C)OC[C@@H](CC(C)C)N(Cc1ncc(OC(C)C)cn1)C(=O)c1cccc(c1)S(=O)(=O)N2 | +++ (+++ is >600%) | < 1 |  |  |  |
| Cc1ccccc1-c1nc2nc(c1C(F)(F)F)OCC1CN(CCC3(C(F)(F)F)CC3)CCN1C(=O)c1cccc(c1)S(=O)(=O)N2 (stereo not drawn) |  |  |  |  | Ent. A Max Activity (CFTR [3]): ++ (++ is 30-60%); EC50 (CFTR [3]; read-out: Ent. A EC50): 1 to 3 µM |
